# In PubChem BioAssay AID1347076 (National Center for Advancing Translational Sciences (NCATS), 2019):
# About 13,000 (3.2%) of roughly 400,000 compounds were called active. The inconclusive results got no clear call from the source; some entries with a clear call stand among them for comparison. Calls follow the shape of the dose curve; as a rule, active = well fitted cell-killing curve with a large enough effect; inconclusive = small, poorly fitted or top-dose-only effect, or effect the other way; inactive = flat fitted curve, though single readings scatter. Where the call is inconclusive, the potency comes from a doubtful curve fit.
# Experiment: qHTS assay for MDR1-selective chemotherapeutics: Primary screen using the drug-selected MDR subline cells KB-V1; also: nearly all actives have a fitted effect of over 60% in size
# Settings: KB-V1 MDR cells viability, CellTiter-Glo, 72 h; activity change, negative = cytotoxicity: at 46.1 µM (top of the series)
# Procedure, shortened: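 Readout: CellTiter-Glo luminescence, 10 min after addition. Cells: KB-V1 MDR subline, 72 h at 37 degrees C with compound. Analysis: corrected, normalized data fitted to concentration-effect curves.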
# % is scaled to controls: 0 for no effect and ±100 for the full control effect; potency is read from the fitted curve at half-maximal effect.
Compound,Potency,"activity change, negative = cytotoxicity"
C[C@H]1CN([C@@H](C)CO)C(=O)c2cc(Br)cnc2O[C@H]1CN(C)S(=O)(=O)c1cccs1,"inconclusive: 8.2 µM [cytotoxic, partial curve, poor fit]",–
COc1ncnc2c1sc1nc(-c3ccccc3)c3c(c12)CCCC3,–,inconclusive: -1.79%
Nc1ccccc1OCP(=O)(c1ccccc1)c1ccccc1,"inconclusive: 2.06 µM [rising, partial curve, poor fit]",–
COc1cc(C(C)=O)ccc1OCC(=O)NCCCn1nc(C)cc1C,"inconclusive: 0.0073 µM [cytotoxic, full curve, poor fit]",–
COc1cc(O)c(CCC(=O)c2cc(OC)c(OC)c(OC)c2)c(OC)c1,"inconclusive: 20.6 µM [cytotoxic, single point]",–
CCOC(=O)c1c(S(=O)(=O)N2CCC(C(=O)N3CCN(c4ccccc4F)CC3)CC2)c(C)n(C)c1C,inactive,–
Cn1cc(C(=O)NCc2ccccc2Cl)c(=O)c2cc(S(=O)(=O)N3CCCCCC3)ccc21,inactive,–
O=C(N/N=C/c1ccccc1[N+](=O)[O-])C(=O)N1CCCC1,inactive,–
Clc1ccccc1-c1nc2nc3ccccc3nc2n1-c1ccc2c(c1)OCO2,active: 9.2 µM,–
COCc1c(C(=O)N2CCc3ccccc32)oc2ccccc12,inactive,–
CCc1nc(SCC(=O)N2CCN(C(=O)c3ccco3)CC2)c2c3c(sc2n1)CCCC3,"inconclusive: 29.1 µM [cytotoxic, partial curve, poor fit]",–
COc1ccc(C(=O)NCC(=O)OCC(=O)c2c(C)[nH]c3ccccc23)cc1OC,"inconclusive: 16.4 µM [cytotoxic, single point]",–
Cc1[nH]ncc1-c1nc2ccccc2[nH]1,"inconclusive: 14.6 µM [rising, single point]",–
CC(=O)NC(=S)Nc1sc2c(c1C#N)CCCCC2,"inconclusive: 18.4 µM [cytotoxic, single point]",–
CCCN(C(=O)C1CCCN(c2ncnc3c2nc2n3CCCCC2)C1)c1ccc(F)cc1 (stereo not given),inactive,–
Cc1ccc(NS(=O)(=O)c2ccc(C(=O)NNC(=O)c3ccccc3O)cc2)cc1,"inconclusive: 9.2 µM [cytotoxic, partial curve]",–
Cc1cc(C)n(-c2cc(N3CCN(C(=O)c4cccc(Br)c4)CC3)ccc2[N+](=O)[O-])n1,"inconclusive: 16.4 µM [cytotoxic, single point]",–
CN(CC(=O)NCc1ccc(F)cc1)S(=O)(=O)c1ccc2[nH]c3c(c2c1)CCCC3,"inconclusive: 3.26 µM [rising, full curve]",–
COc1ccc(CNC(=O)CCc2ccc(S(=O)(=O)N3CCCCCC3)cc2)cc1OC,"inconclusive: 29.1 µM [cytotoxic, single point]",–
CCOC(=O)Cn1nc(C)c(NC(=O)COc2ccc([N+](=O)[O-])c(C)c2)c1C,"inconclusive: 9.2 µM [cytotoxic, partial curve, poor fit]",–
Nc1nc(N2CCN(C(=O)c3ccco3)CC2)nc2ccc(Br)cc12,active: 20.6 µM,–
Cc1ccc(C(=O)O)cc1NC(=S)NC(=O)Cc1ccccc1,inactive,–
O=C(CCOc1ccccc1)Nc1nnc(-c2ccc3c(c2)OCCO3)o1,"inconclusive: 18.4 µM [cytotoxic, single point]",–
COCCCN1C(=O)c2ccc(C(=O)Nc3ccc(C)cc3C)cc2C1=O,inactive,–
Cc1cc(C(=O)N2CCN(c3ncccn3)CC2)sc1-c1ccccc1,active: 20.6 µM,–

# 5 entries picked at random from the list so far:
Compound,Potency,"activity change, negative = cytotoxicity"
COc1cc(O)c(CCC(=O)c2cc(OC)c(OC)c(OC)c2)c(OC)c1,"inconclusive: 20.6 µM [cytotoxic, single point]",–
COCc1c(C(=O)N2CCc3ccccc32)oc2ccccc12,inactive,–
COc1ccc(CNC(=O)CCc2ccc(S(=O)(=O)N3CCCCCC3)cc2)cc1OC,"inconclusive: 29.1 µM [cytotoxic, single point]",–
COc1ncnc2c1sc1nc(-c3ccccc3)c3c(c12)CCCC3,–,inconclusive: -1.79%
CCCN(C(=O)C1CCCN(c2ncnc3c2nc2n3CCCCC2)C1)c1ccc(F)cc1 (stereo not given),inactive,–

# (list continues)

Compound,Potency,"activity change, negative = cytotoxicity"
CC(C)(C)NCC(=Cc1ccccc1)C(=O)c1ccccc1,"inconclusive: 3.26 µM [cytotoxic, partial curve, poor fit]",–
C=CCNC(=S)NN(c1ccccc1)c1ccccc1,"inconclusive: 29.1 µM [cytotoxic, single point]",–
CCN(CC)S(=O)(=O)c1cccc(-c2nnc(SCCCC(=O)c3ccc(F)cc3)o2)c1,active: 15.8 µM,–
COc1ccccc1N(CC(=O)NC1CCCC1)C(=O)CCC(=O)Nc1ccccn1,inactive,–
COc1ccc(OC)c(NC(=O)c2[nH]c(C)c(C(C)=O)c2C)c1,active: 16.4 µM,–
NCC(O)c1ccc(O)c(O)c1 (stereo not given),inactive,–
CCOc1cc(/C=C2/SC(=S)N(CC3CCCO3)C2=O)ccc1O (stereo not given),inactive,–
O=C(Nc1cccnc1)c1cc(-c2ccc(Cl)cc2)on1,"inconclusive: 25.9 µM [cytotoxic, single point]",–
CCn1nc(C)c(CNC(=O)Nc2ccccc2C(=O)OC)c1C,"inconclusive: 20.6 µM [cytotoxic, partial curve, poor fit]",–
COc1ccc(OC)c(-n2c(N)c(C(=O)NCC3CCCO3)c3nc4ccccc4nc32)c1 (stereo not given),inactive,–
Cc1ccc(Cc2cnc(NC(=O)c3ccco3)s2)cc1,active: 18.4 µM,–
CCCCCCn1c(=O)n2n(c1=O)C[C@]1(OC(=O)NCc3ccc(OC)c(OC)c3)CN(S(=O)(=O)c3ccc(C)cc3)C[C@]1(O)C2,"inconclusive: 14.6 µM [rising, partial curve, poor fit]",–
Cc1c(Cl)cccc1NC(c1ccc(F)cc1)c1nnc(-c2ccccc2)o1 (stereo not given),inactive,–
Cc1ccc2nc(C)c(C(=O)N/N=C/c3ccccc3[N+](=O)[O-])cc2c1,"inconclusive: 8.2 µM [cytotoxic, partial curve]",–
CCC(C)(C)n1nnnc1C(c1ccc(C)cc1)N1CCN(Cc2ccc3c(c2)OCO3)CC1 (stereo not given),"inconclusive: 18.4 µM [cytotoxic, partial curve, poor fit]",–
O=CC(O)C1OC(=O)C(O)C1O (stereo not given),inactive,–
CNC(=O)c1c(NC(=O)c2nc(SCc3ccc(C)cc3)ncc2Cl)sc2c1CCCC2,inactive,–
O=C(CCS(=O)(=O)c1ccccc1)Nc1nc(-c2ccc(F)cc2)cs1,inactive,–
CN(C)c1ccc(/C=C/C=C/c2ccnc3ccccc23)cc1,active: 6.51 µM,–
CCc1ccc(OCC(=O)NNC(=S)NC(=O)C2CCCCC2)c(Br)c1,inactive,–
CC(=O)Nc1cc(C(=O)OCC(=O)c2ccc(Cl)cc2Cl)ccc1C,"inconclusive: 29.1 µM [cytotoxic, single point]",–
O=C(NCc1ccncc1)C1CCN(S(=O)(=O)c2ccc(Cl)c(C(F)(F)F)c2)CC1,inactive,–
COc1ccc(CCNC(=O)c2ccc(Br)o2)cc1Br,"inconclusive: 20.6 µM [cytotoxic, partial curve]",–
CCOC(=O)c1ccc2c(c1)nc(SCC(=O)c1ccco1)n2CC,inactive,–
C=CCS(=O)(=O)N1CCC(CCOc2ccccc2)(C(=O)OCC)CC1,inactive,–

Compound,Potency,"activity change, negative = cytotoxicity"
CCN1C(=O)C(=CC=CN(C)c2ccccc2)SC1=S,inactive,–
CN(C(=O)COC(=O)c1ccccc1C(=O)c1ccccc1)c1ccccc1,active: 20.6 µM,–
COCCCNCCCCOc1ccccc1-c1ccccc1,"inconclusive: 20.6 µM [cytotoxic, partial curve, poor fit]",–
CCCCCc1c(O)nc(SCCN2CCOCC2)[nH]c1=O,inactive,–
COC(=O)c1ccc(C(=O)N2CCCCCC2(C)C(=O)NC(C)C)cc1 (stereo not given),inactive,–
CCCOc1ccc(C2=CSC3=NCCN23)cc1Cl,"inconclusive: 0.92 µM [cytotoxic, full curve, poor fit]",–
CCOC(=O)C1=CCN(S(=O)(=O)c2ccccc2C(=O)OC)C1c1ccc(Cl)cc1 (stereo not given),inactive,–
O=C(Cc1ccc(F)cc1)Nc1cccc2cccnc12,active: 16.4 µM,–
CCC1(CC)N([O-])C(C)=C(c2ccccc2)[N+]1=O,"inconclusive: 20.6 µM [rising, partial curve, poor fit]",–
COc1ccc(-c2ccc(CN3C(C(C)C)C(=O)N(Cc4cn(Cc5ccco5)nn4)CCS3(=O)=O)cc2)cn1 (stereo not given),inactive,–
COC(=O)c1cccc(NC(=O)Nc2ccc(Cl)c(Cl)c2)c1,active: 14.6 µM,–
CSCCC(c1nnnn1C1CCCC1)N1CCN(C/C=C/c2ccccc2)CC1 (stereo not given),inactive,–
COc1ccc(CNc2nc(Cl)c(C#N)s2)cc1,inactive,–
CC(=O)[C@@]1(O)CC[C@H]2[C@@H]3CCC4=CC(=O)CC[C@]4(C)[C@H]3[C@@H](O)C[C@@]21C,"inconclusive: 18.4 µM [cytotoxic, single point]",–
O=C(CCl)Nc1cn(-c2ccccc2)nc1-c1ccc(F)cc1,"inconclusive: 29.1 µM [cytotoxic, single point]",–
COc1ccc(C2c3cc4c(cc3OC(NNC(N)=O)C2C)OCO4)cc1 (stereo not given),active: 9.2 µM,–
Cc1ccc(C2(c3ccc(C)cc3)CC2C(=O)NC(C)C)cc1 (stereo not given),"inconclusive: 29.1 µM [cytotoxic, single point]",–
CCC(=O)N1CCN=C1SCc1ccccc1,"inconclusive: 2.31 µM [rising, partial curve, poor fit]",–
COc1ccc(CCNC(=O)c2c(O)nc3c(C)cccn3c2=O)cc1OC,active: 6.51 µM,–
O=C1CSC(c2ccccn2)N1c1ccc(Br)cc1 (stereo not given),"inconclusive: 20.6 µM [cytotoxic, single point]",–
Cc1ccc(NC(=O)C(=O)NCC(c2cccnc2)N2CCN(C)CC2)cc1 (stereo not given),"inconclusive: 10.3 µM [rising, partial curve]",–
O=C(NCc1ccco1)c1ccc2c(=O)n(Cc3ccco3)c(SCC(=O)N3CCCC3)nc2c1,inactive,–
O=C(c1cc(COc2ccccc2)on1)N1CCCC(CN2CCOCC2)C1 (stereo not given),"inconclusive: 29.1 µM [cytotoxic, single point]",–
COc1ccc(S(=O)(=O)N2CCN(C(=O)c3ccco3)CC2)c(C)c1C,"inconclusive: 1.64 µM [cytotoxic, partial curve, poor fit]",–
CCn1c(CN2CCCCC2)nc2cc(NC(=O)COc3ccccc3C(C)(C)C)ccc21,inactive,–
